Sequences of proteins named here, by UniProt entry; tags and fusion partners are left off. A change or cut given only in a name is not applied to a line headed by its entry.
UniProt Q8WNY2: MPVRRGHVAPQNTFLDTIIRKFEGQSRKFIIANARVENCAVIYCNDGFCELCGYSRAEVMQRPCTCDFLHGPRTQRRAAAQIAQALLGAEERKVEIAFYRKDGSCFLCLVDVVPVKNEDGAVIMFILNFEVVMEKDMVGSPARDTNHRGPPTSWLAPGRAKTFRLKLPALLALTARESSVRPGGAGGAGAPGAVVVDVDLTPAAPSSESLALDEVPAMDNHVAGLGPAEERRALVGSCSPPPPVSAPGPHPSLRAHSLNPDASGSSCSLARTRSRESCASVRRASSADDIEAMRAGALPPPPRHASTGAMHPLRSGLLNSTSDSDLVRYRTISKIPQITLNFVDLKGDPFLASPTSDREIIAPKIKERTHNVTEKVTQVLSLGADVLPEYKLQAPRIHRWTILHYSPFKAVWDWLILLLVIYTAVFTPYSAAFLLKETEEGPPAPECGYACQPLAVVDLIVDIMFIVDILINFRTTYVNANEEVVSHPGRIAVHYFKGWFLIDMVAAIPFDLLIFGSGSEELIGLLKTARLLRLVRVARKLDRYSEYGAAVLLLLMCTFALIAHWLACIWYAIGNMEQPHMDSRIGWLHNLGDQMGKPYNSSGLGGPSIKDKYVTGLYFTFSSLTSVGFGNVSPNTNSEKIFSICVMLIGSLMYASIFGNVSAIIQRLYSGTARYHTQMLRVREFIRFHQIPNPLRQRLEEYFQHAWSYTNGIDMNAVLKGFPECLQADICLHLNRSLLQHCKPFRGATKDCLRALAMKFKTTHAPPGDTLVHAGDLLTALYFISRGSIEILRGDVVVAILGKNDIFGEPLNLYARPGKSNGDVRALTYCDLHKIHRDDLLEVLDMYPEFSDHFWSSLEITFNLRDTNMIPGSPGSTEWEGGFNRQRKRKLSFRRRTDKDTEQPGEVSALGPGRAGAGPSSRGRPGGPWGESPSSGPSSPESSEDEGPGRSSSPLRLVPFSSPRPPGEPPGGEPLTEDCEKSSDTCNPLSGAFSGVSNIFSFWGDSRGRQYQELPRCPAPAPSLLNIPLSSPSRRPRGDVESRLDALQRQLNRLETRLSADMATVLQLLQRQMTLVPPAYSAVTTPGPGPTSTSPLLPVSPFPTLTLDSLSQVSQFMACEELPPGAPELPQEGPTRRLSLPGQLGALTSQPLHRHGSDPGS

According to patent US20020183241A1, “Methods for treating vertigo and motion sickness using descarboethoxyloratadine” (priority 1997, published 2002):

Target: delayed rectifying K+ current (IKr) (Oryctolagus cuniculus, UniProt Q8WNY2)
Assay: cell-based

In the case of CCOC(=O)N1CCC(=C2c3ccc(Cl)cc3CCc3cccnc32)CC1 [Loratadine], the IC50 is reported as about 9 µM.
